# Values quoted from earlier work in patent US5795885A, “Method of inhibiting profileration of cells by administering an aminosterol compound” (priority 1995, dated 1998).
# At least one structure is not confirmed: it was looked up by name or label, or the drawing left a doubt.
# Test system: NHE1
# Settings: cited from earlier work
smiles,measurement,value
CS(=O)(=O)c1cc(C(=O)N=C(N)N)ccc1N1CCCCC1 [(3-methylsulfonyl-4-piperidinobenzoyl) guanidine methanesulfonate],specificity for NHE1,exhibits particular selectivity to the NHE1
